Test results: US20250296958A1, “GL[…] E[…]” (THE ADMINISTRATORS OF THE TULANE EDUCATIONAL FUND, priority 2022, published 2025)

Test system: male and female CD-1 mice
Assay: Tail flick (TF) antinociception test
Format: in vivo
Description: Tail Flick (TF): CD1 mice were used for this test. The latency to withdraw the tail from a heat source was automatically measured (IITC, Woodland Hills, CA). […] Percent Maximum Possible Effect (% MPE) was determined as [(latency-baseline latency)/(9-baseline latency)]*100.
Statistics/Data Analysis: Data were analyzed with […] PRISM software (GraphPad Software, San Diego CA).

In the case of `CN1CC[C@]23c4c5ccc(O)c4O[C@H]2[C@@H](O)C=C[C@H]3[C@H]1C5` [morphine, reference compound], the “rank order of effectiveness, TF AUC” value (main effects of drug) is reported as “A2>A7>A1>morphine>ZH853” and the “TF antinociception AUC” value (top dose (5.6 mg/kg), mean male and female) is reported as 10000.
